No constants are given. Whether binding was seen depends on the method and setting. Binding seen in cells or lysates may run through a third protein. Some entries that bind do so weakly or less than the wild type. One block for each molecule: values may come before it.
Key:
[1] = molecular target: T1, F-box and leucine-rich repeat protein 16 (FBXL16) (human (endogenous in Ishikawa)) (UniProt Q8N461); assay: co-IP; Ishikawa/MPA cells with shRNA-NC or shFBXL16; endogenous proteins; precipitating antibody not stated for this experiment
T1 sequence: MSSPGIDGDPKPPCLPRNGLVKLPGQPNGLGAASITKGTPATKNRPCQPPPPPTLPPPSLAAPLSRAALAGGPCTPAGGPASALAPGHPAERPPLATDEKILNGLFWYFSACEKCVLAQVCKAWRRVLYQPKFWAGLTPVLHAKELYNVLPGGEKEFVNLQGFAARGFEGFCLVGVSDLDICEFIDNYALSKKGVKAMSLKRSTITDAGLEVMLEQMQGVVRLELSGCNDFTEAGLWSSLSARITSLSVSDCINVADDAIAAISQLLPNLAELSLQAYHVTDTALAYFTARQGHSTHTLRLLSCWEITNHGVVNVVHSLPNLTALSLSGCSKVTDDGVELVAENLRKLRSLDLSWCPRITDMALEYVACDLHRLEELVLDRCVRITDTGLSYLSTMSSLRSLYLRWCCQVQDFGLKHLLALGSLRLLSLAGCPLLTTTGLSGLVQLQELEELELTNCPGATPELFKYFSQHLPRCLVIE

Amino acid sequences for entries named in this document (tags omitted).
UniProt Q969H0: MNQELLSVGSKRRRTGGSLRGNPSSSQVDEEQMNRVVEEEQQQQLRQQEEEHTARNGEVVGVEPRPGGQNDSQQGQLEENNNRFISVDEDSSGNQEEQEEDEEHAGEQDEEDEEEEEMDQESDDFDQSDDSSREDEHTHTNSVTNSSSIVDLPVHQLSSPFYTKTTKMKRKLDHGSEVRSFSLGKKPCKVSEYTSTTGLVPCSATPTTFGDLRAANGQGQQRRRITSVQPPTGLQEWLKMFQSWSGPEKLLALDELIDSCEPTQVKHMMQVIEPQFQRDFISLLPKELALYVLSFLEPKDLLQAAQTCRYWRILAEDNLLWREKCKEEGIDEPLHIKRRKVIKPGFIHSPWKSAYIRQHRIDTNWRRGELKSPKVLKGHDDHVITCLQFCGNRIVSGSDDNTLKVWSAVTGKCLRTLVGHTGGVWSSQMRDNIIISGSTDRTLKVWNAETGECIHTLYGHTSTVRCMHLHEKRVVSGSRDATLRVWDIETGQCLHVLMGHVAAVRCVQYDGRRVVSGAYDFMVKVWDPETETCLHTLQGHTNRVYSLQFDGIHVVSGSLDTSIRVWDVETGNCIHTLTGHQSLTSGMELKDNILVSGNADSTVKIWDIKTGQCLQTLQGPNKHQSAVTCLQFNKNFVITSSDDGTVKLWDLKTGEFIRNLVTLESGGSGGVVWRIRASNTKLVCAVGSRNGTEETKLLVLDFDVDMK
UniProt P24385: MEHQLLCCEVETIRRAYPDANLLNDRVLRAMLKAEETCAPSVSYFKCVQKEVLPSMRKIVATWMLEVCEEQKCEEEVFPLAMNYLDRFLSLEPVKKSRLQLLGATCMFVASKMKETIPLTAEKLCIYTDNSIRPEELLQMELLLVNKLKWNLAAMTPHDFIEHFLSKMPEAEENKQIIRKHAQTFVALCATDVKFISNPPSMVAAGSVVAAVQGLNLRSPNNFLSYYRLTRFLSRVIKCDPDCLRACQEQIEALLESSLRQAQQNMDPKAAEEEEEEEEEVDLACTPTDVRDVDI

[2] = molecular target: T1, F-box and leucine-rich repeat protein 16 (FBXL16) (human (endogenous in Ishikawa)); assay: co-IP; Ishikawa/MPA cells (shRNA-NC or shFBXL16), treated with 100 nM nocodazole for 4 hours, NP-40 lysis buffer; antibodies to PP2A/C, PP2A^B55-α, PP2A/A and FBXL16 incubated with cell extracts at 4°C for 16 hours, protein A/G beads, western blot

- binding [1]: no binding
Molecule: FBW7 (from UniProt Q969H0 1-707)

- binding [1]: no binding
Molecule: cyclin D1 (from UniProt P24385 1-295)

- binding [2]: binds
B1: PP2A^B55α (B55α regulatory subunit of protein phosphatase 2A) (protein, UniProt P63151 1-447)
chain: MAGAGGGNDIQWCFSQVKGAVDDDVAEADIISTVEFNHSGELLATGDKGGRVVIFQQEQENKIQSHSRGEYNVYSTFQSHEPEFDYLKSLEIEEKINKIRWLPQKNAAQFLLSTNDKTIKLWKISERDKRPEGYNLKEEDGRYRDPTTVTTLRVPVFRPMDLMVEASPRRIFANAHTYHINSISINSDYETYLSADDLRINLWHLEITDRSFNIVDIKPANMEELTEVITAAEFHPNSCNTFVYSSSKGTIRLCDMRASALCDRHSKLFEEPEDPSNRSFFSEIISSISDVKFSHSGRYMMTRDYLSVKIWDLNMENRPVETYQVHEYLRSKLCSLYENDCIFDKFECCWNGSDSVVMTGSYNNFFRMFDRNTKRDITLEASRENNKPRTVLKPRKVCASGKRKKDEISVDSLDFNKKILHTAWHPKENIIAVATTNNLYIFQDKVN

Source: article PMC9467819
